## Primary screen of a compound library

Amino acid sequences for entries named in this document (tags omitted). Residues count along the entry.
UniProt P9WNZ1, whole entry: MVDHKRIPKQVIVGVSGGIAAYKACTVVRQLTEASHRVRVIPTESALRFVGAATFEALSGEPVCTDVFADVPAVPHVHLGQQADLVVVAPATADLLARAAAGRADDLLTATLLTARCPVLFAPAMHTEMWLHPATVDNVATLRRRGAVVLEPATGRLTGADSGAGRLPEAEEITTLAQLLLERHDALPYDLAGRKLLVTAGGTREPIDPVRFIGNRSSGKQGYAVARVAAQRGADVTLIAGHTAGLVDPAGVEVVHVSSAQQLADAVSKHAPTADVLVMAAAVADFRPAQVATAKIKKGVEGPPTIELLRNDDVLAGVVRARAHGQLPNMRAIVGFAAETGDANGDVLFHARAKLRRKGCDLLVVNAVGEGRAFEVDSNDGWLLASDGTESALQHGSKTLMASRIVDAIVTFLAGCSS
UniProt Q8IDJ8, 1-583: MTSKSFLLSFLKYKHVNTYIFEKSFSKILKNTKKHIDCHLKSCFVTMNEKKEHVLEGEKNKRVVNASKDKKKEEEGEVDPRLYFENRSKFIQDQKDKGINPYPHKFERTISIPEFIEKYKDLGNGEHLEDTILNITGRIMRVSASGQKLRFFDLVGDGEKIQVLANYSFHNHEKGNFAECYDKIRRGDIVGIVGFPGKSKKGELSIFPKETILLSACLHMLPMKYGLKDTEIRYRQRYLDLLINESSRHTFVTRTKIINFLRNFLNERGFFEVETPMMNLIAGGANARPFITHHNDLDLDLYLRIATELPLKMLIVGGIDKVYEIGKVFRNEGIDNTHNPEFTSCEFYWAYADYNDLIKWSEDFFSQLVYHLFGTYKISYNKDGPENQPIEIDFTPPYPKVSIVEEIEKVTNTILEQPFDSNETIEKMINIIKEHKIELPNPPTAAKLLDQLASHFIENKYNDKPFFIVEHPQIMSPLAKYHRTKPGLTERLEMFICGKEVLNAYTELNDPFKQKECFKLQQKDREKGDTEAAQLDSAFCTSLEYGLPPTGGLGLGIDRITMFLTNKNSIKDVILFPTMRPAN
UniProt P9WFT3, whole entry: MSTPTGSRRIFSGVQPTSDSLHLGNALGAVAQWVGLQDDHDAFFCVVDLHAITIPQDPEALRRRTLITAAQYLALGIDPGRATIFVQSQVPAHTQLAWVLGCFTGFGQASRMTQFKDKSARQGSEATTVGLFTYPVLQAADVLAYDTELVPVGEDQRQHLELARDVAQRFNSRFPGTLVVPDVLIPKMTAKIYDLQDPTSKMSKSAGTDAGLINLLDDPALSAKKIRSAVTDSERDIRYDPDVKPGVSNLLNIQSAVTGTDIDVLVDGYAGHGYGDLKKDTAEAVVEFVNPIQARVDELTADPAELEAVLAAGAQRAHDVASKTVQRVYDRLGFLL
UniProt I6X8D2, whole entry: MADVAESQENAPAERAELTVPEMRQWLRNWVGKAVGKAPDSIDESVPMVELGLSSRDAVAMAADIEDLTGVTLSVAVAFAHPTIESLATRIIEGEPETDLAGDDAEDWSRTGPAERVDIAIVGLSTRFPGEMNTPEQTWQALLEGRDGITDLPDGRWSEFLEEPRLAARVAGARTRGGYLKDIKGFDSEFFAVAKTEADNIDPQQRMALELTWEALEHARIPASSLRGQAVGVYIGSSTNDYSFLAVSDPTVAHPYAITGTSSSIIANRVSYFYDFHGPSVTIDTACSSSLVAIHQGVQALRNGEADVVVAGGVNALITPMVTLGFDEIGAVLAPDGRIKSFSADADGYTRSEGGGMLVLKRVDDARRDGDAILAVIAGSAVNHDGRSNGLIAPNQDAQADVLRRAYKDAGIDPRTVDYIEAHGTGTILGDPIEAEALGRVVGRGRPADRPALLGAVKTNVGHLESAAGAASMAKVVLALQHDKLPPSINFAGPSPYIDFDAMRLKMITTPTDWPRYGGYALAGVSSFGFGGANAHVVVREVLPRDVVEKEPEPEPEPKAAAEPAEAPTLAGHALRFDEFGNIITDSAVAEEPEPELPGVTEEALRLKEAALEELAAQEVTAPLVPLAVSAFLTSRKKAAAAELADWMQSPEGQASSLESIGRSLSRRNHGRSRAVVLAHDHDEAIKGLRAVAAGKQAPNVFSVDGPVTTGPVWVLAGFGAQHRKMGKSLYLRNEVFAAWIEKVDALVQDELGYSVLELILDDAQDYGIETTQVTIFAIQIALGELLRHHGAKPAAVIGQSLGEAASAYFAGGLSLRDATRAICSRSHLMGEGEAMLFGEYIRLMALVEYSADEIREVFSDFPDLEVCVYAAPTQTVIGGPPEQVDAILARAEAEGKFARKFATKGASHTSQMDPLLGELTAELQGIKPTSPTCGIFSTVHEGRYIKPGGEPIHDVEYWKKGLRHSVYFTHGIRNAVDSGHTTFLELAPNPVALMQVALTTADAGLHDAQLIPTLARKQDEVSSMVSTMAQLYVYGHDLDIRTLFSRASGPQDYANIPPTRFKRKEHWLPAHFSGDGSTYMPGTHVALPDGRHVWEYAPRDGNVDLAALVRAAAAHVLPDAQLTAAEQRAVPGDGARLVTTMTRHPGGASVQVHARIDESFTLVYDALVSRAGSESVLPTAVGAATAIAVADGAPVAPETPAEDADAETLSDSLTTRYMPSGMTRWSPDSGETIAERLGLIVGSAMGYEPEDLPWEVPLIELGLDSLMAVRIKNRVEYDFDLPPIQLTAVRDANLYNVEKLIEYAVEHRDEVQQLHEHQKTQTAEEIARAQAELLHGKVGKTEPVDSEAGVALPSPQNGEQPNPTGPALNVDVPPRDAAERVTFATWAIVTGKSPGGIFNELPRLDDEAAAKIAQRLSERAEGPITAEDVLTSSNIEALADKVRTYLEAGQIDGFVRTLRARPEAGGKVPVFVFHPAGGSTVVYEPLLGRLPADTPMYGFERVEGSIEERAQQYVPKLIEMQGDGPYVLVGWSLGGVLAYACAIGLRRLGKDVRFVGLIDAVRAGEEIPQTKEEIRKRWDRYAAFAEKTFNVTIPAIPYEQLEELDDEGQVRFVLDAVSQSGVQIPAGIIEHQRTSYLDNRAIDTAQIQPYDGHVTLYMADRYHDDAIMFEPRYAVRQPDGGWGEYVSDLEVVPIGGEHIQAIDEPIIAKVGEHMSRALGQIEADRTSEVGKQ

From ChEMBL document CHEMBL3988442, “University of Dundee, Small-Polar-MMV Screening Library” (2021).

Each number is a percent effect as filed.
The record does not define 0% and 100%; most values in the screen are far below 50% and negative numbers occur (in some assays of this library far below -100).
Compounds were drawn at random from those tested, without regard to their results.
A dash means the value is not listed here; it may have been measured.

CoaBC: 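Enzyme assay of CoaBC with a phosphate dye (Biomol Green) read at 650 nm. Target: Coenzyme A biosynthesis protein CoaBC, Mycobacterium tuberculosis (UniProt P9WNZ1). Tested at 30 µM. Direction is inferred from only a few compounds that gave an IC50; most scored high, so higher reads as stronger inhibition. Most strong results did not repeat in a second test. About 67,000 compounds were tested under these conditions; 0.06% (about 40) showed 50% or more at least once.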
PfKRS1: 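Lysine-tRNA ligase, Plasmodium falciparum 3D7 (UniProt Q8IDJ8). Enzyme assay of the cytosolic lysyl-tRNA synthetase in 384-well plates, read by luminescence. Concentration: 30 µM. Higher reads as stronger inhibition, judged from the few compounds that gave an IC50. Size under these conditions: about 69,000 compounds, about 49 of them at 50% or above in at least one test.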
Toxoplasma: 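Assay of Toxoplasma gondii numbers, read through their beta-galactosidase reporter with a colour substrate. Concentration: 10 µM. Higher reads as fewer parasites (inferred from which compounds were picked for retests). Of about 67,000 compounds tested this way, about 260 (0.38%) reached 50% or more in at least one test.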
MtTrpRS: 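Enzyme assay of tryptophanyl-tRNA synthetase; the read-out is not stated. Target: Tryptophan-tRNA ligase, Mycobacterium tuberculosis (UniProt P9WFT3). Tested at 10 µM. Higher most likely means stronger inhibition; the record gives no direction and few retests gave an IC50. Size under these conditions: about 65,000 compounds, about 64 of them at 50% or above in at least one test.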
Pks13 thioesterase: 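Polyketide synthase Pks13, Mycobacterium tuberculosis (UniProt I6X8D2). Enzyme assay of the thioesterase domain of polyketide synthase 13; the read-out is not stated. Compounds at 30 µM. Higher reads as stronger inhibition (inferred from which compounds were picked for retests). Size under these conditions: about 67,000 compounds, about 300 of them at 50% or above in at least one test.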

structure	CoaBC	PfKRS1	Toxoplasma	MtTrpRS	Pks13 thioesterase
CCN(Cc1cccc(-c2ccncc2)c1)S(C)(=O)=O	4.645%	3.361%	11.78%	-2.385%	-25.86%
c1cnn(CC2CN(Cc3ccc(-n4ccnc4)cc3)CCO2)c1 (centres undefined)	10.03%	13.9%	-	1.652%	-41.09%
O=C(NCc1ccco1)c1cccc(C(=O)NCc2ccco2)n1	-0.7595%	-1.058%	-7.56%	-0.8862%	-6.918%
O=C(COCc1ccccc1Cl)N1CCN(c2ccc(Br)cn2)CC1	3.891%	8.494%	1.705%	3.799%	63.09%
Cc1nc(Nc2nncs2)cc(C2CCCN2C)n1 (centres undefined)	-0.1239%	0.5248%	12.11%	-	-14.97%
Cc1nc(CN(C)C2CCN(Cc3ccno3)C2)no1 (centres undefined)	2.308%	6.738%	-1.122%	8.21%	6.022%
CCN(CC)C(=O)CCc1nc(-c2cnn3c(C)cc(C)nc23)no1	3.457%	2.02%	0.1619%	2.442%	-5.273%
CCC1CCc2c(c3ccccc3[nH]c2=O)O1 (centres undefined)	-36.02%	-3.91%	20.52%	-2.039%	-17.99%
Cc1cnc(N2CCC(c3ccccc3)CC2)nc1-c1ccnn1C	-6.638%	-0.2264%	12.31%	-10.78%	-31.56%
CCOc1ncccc1NC(=O)c1cc(C)sc1C	6.633%	6.237%	-20.59%	-1.782%	0.3284%
CCC(C)[C@H](N)c1nnc(SCC(=O)Nc2ccc(C)cc2C)o1 (some centres undefined)	1.013%	-2.178%	-	-3.885%	3.835%
CN1CCN(S(=O)(=O)N2CCCCC2CCc2ccc(O)cc2)CC1 (centres undefined)	-2.773%	6.241%	2.471%	-1.526%	-17.97%
C=C(C)COc1cccc(CNCc2nc3ccccc3c(=O)[nH]2)c1	-0.2433%	-1.317%	3.428%	3.413%	21.78%
CCN1CCN(C(C)CNC(=O)Nc2nc3ccccc3s2)CC1 (centres undefined)	-28.79%	5.375%	3.409%	4.368%	-15.55%
CC(C)c1nc(C2CCCN2CCOCC2CC2)no1 (centres undefined)	-5.144%	-5.447%	-9.792%	1.836%	-16.31%
O=C(O)C(F)(F)F.[H][C@@]12CN(C(=O)c3ccc(F)cc3)C[C@]1([H])OCCN2c1ncccn1	-	-	3.098%	-	-
Cn1ccnc1C(=O)NCc1cc(=O)n2c(n1)CN(CC1CC1)CCC2	-5%	-0.7554%	-8.217%	3.315%	-27.33%
CCC(=O)N1CCN(C(=O)Nc2cccc(C#N)c2)[C@H]2CS(=O)(=O)C[C@H]21	8%	4.952%	-	-0.805%	-10.89%
CN(C)C(=O)N1CCC2(CC1)CCN(c1ncccn1)C2	-9.63%	1.875%	-	1.543%	-13.19%
CC(=O)N1CCN(C(=O)CCn2c(C)nc3ccccc3c2=O)CC1	5.957%	1.475%	6.935%	-7.345%	-7.861%
COc1ccc(-c2noc(C(N)CCSC)n2)cc1 (centres undefined)	3.373%	-0.8008%	-13.22%	-0.1942%	27.62%
O=C(NCCNc1ccc(C(F)(F)F)cn1)c1ccoc1	11.81%	0.3533%	9.929%	-1.883%	-
COc1cc(C2CC(=O)c3c(O)cc(O)cc3O2)ccc1O (centres undefined)	6.998%	-1.26%	4.041%	-2.937%	-0.4531%
CN(C)CC1CN(Cc2coc(-c3cccs3)n2)CCO1 (centres undefined)	4.563%	1.304%	10.01%	5.49%	-5.696%
CCc1nnc(CN(C)Cc2cccc(C(=O)Nc3nccs3)c2)o1	6.601%	5.645%	11.88%	-2.534%	-10.11%
CNC(=O)CCNC(=O)c1cccc(Cn2nc(C)cc2C)c1	-10.97%	9.557%	-7.677%	0.3791%	-13.99%
CC(C)(C)c1nc(CC(=O)N2CCCC(n3cncn3)C2)cs1 (centres undefined)	4.737%	0.08701%	-13.69%	-8.422%	-17.34%
[H][C@@]12COC[C@]1(CNS(=O)(=O)CC)CN(Cc1cc(C)on1)C2	-	-	-1.13%	-	-
COCCNc1c(-c2ccc(Cl)cc2)c(=O)c1=O	-2.767%	6.596%	-4.258%	-1.357%	-18.14%
NC(=O)Cc1ccc(OCc2noc(C(=O)N3CCCC3)n2)cc1	0%	-3.363%	-33%	1.359%	-3.596%
COc1cccc(CN2CCC3(COCc4cnc(N(C)C)nc43)C2)c1.O=C(O)C(F)(F)F (centres undefined)	-	-	13.06%	-	-
O=C(O)C(F)(F)F.O=C(O)C(F)(F)F.[H][C@@]12CCCO[C@]1([H])[C@H](NC(=O)CC1CC1)CN(Cc1ccncc1)C2	-	-	-2.778%	-	-
O=C(COc1ccc2c(c1)CCC2)NCc1ccco1	-7.39%	-2.75%	52.59%	1.295%	-9.582%
CN(CCCc1cnn(C)c1)Cc1cc2n(n1)CCNC2	3.236%	0.8209%	4.669%	1.363%	-6.924%
CC(=O)Nc1cccc(C(=O)Nc2cnc3n2CCCC3)c1	-1.266%	7.939%	-9.072%	-6.445%	0.2873%
Cc1nnc2n1CCN(Cc1ncc(-c3ccc(Cl)cc3)o1)C2	2.66%	2.874%	-12.56%	1.258%	-3.887%
CN(C)Cc1ccnc(NS(=O)(=O)CCc2ccccc2)c1	-	-0.9847%	0.9709%	0.1009%	-42.72%
Cc1csc(C2CCCCN2C(=O)c2cc(C3CC3)[nH]n2)n1 (centres undefined)	-0.7168%	-1.107%	2.548%	-0.4351%	-24.54%
Cc1cccc(OCCNC(=O)C(C)S(=O)(=O)C2CCCC2)c1 (centres undefined)	0.7937%	6.963%	3.162%	-1.144%	-4.399%
CC(C)CN(CC(F)(F)F)S(=O)(=O)c1cc(C(N)=O)n(C)c1	-3.38%	5.235%	-1.999%	0.8043%	-6.937%
Clc1ccc2oc(C3CCN(Cc4cccnc4)CC3)nc2c1	-3.198%	-5.504%	-2.424%	1.006%	-18.6%
O=C(C1CCC1)N1CC[C@H](O)[C@@H]1Cc1cccnc1.O=C(O)C(F)(F)F	-	-	-29.55%	-	-
Cc1nc(CN2CCCC(CCc3cccc(C(F)(F)F)c3)C2)co1 (centres undefined)	2.376%	22.31%	4.285%	-0.7323%	-19.77%
CC(C)(O)CCc1cccc(C(=O)NCc2cnn3cccnc23)c1	1.46%	-2.453%	-29.57%	-1.961%	-6.529%
O=C(Nc1ccccc1Cn1cccn1)N1CCCC(N2CCCC2)C1 (centres undefined)	-8.482%	-5.788%	-0.5508%	4.438%	-8.123%
Cc1ccc2c(n1)N(C)CCN(C(=O)NC1CC1)C2.O=C(O)C(F)(F)F	-	-	-6.303%	-	-
COc1cccc(S(=O)(=O)Cc2cc(C)on2)c1	-4.104%	5.337%	6.253%	0%	-34.77%
[H][C@@]12CS(=O)(=O)C[C@]1([H])N(Cc1nccn1C)CCN2Cc1ccncc1	-	-	-12.67%	-	-
O=S(=O)(c1cccs1)N1CCN2C[C@H](OCC3CC3)C[C@H]2C1	7.943%	6%	-	-5.41%	-18.88%
CCS(=O)(=O)N1CC[C@@H]2[C@@H](CCC(=O)N2CCc2ccccc2)C1	3.342%	3.759%	-	-0.7276%	-
Cc1ccccc1CN1CCN(C(=O)CCn2ccccc2=O)CC1	3.086%	3.087%	3.631%	-2.113%	-25.91%
C=C(C)CN1CCCC(CNS(C)(=O)=O)C1 (centres undefined)	-2.232%	0.2988%	0.918%	-2.167%	-10.02%
[H][C@@]12CS(=O)(=O)C[C@]1([H])N(Cc1ncc[nH]1)CCN2Cc1ccccc1CC	-	-	-2.357%	-	-
O=C(O)c1c(Cl)ncn1-c1cccc2ccccc12	-8.43%	1.318%	10.75%	2.643%	3.385%
COc1cc(C)ccc1OCCC(=O)N1CCC(C(N)=O)C1 (centres undefined)	11.45%	8.36%	12.43%	-0.0657%	-30.7%
CS(=O)(=O)NC1CCCN(C(=O)Nc2cccnc2)C1 (centres undefined)	0.5222%	-2.316%	-5.847%	23.07%	-11.85%
Cc1ccc(CN(CC(=O)N2CCOC(C)C2)C2CC2)cc1 (centres undefined)	1.305%	1.165%	12.59%	-3.009%	-3.929%
CC(=O)N1Cc2ccccc2C[C@H]1C(=O)N(C)Cc1ccccn1	0.495%	-0.9453%	-5.578%	2.559%	5.045%
CC1(C)COCCN1C(=O)Cc1cc(Cl)c2c(c1)OCCO2	4.317%	-0.1929%	-14.58%	2.495%	-10.85%
CNC(=O)C(NC(=O)c1ccn(C)c(=O)c1)c1ccccc1 (centres undefined)	-0.4673%	-0.9262%	-0.7392%	-2.168%	13.97%
CCC(CC)c1nnc(NC(=O)NC(C)Cn2cccn2)s1 (centres undefined)	0%	-1.438%	10.99%	69.62%	-18.43%
Cc1nc(CN2CCOCC3(CCCN(c4cnccn4)C3)C2)cs1.O=C(O)C(F)(F)F (centres undefined)	-	-	0.2817%	-	-

The first 6 entries again:

- CCN(Cc1cccc(-c2ccncc2)c1)S(C)(=O)=O | CoaBC: 4.645%; PfKRS1: 3.361%; Toxoplasma: 11.78%; MtTrpRS: -2.385%; Pks13 thioesterase: -25.86%
- c1cnn(CC2CN(Cc3ccc(-n4ccnc4)cc3)CCO2)c1 (centres undefined) | CoaBC: 10.03%; PfKRS1: 13.9%; MtTrpRS: 1.652%; Pks13 thioesterase: -41.09%
- O=C(NCc1ccco1)c1cccc(C(=O)NCc2ccco2)n1 | CoaBC: -0.7595%; PfKRS1: -1.058%; Toxoplasma: -7.56%; MtTrpRS: -0.8862%; Pks13 thioesterase: -6.918%
- O=C(COCc1ccccc1Cl)N1CCN(c2ccc(Br)cn2)CC1 | CoaBC: 3.891%; PfKRS1: 8.494%; Toxoplasma: 1.705%; MtTrpRS: 3.799%; Pks13 thioesterase: 63.09%
- Cc1nc(Nc2nncs2)cc(C2CCCN2C)n1 (centres undefined) | CoaBC: -0.1239%; PfKRS1: 0.5248%; Toxoplasma: 12.11%; Pks13 thioesterase: -14.97%
- Cc1nc(CN(C)C2CCN(Cc3ccno3)C2)no1 (centres undefined) | CoaBC: 2.308%; PfKRS1: 6.738%; Toxoplasma: -1.122%; MtTrpRS: 8.21%; Pks13 thioesterase: 6.022%